{
  "source": "patent US9067923B2",
  "about": "“Substituted quinoxalines” (Kyowa Hakko Kirin Co., Ltd., priority 2011, dated 2015)",
  "tested_on": "production of kynurenine in human gastric cancer cell line KATO-III",
  "experiment": "Inhibitory activity on the production of kynurenine (IFN-γ-treated KATO-III cells)",
  "assay_type": "cell-based",
  "settings": "10 μmol/L test compound; KATO-III cells treated with IFN-γ, 96 hours",
  "procedure": "This assay was performed by a modification of the method described in J. Biol. Chem., vol. 263, pp. 2041-2048 ([…]). For culture of the human gastric cancer cell line […], RPMI 1640 (GIBCO, 11875) supplemented with 10 vol % FBS (GIBCO, 10091-148, lot. 665285) was used. One μL of a test substance in a DMSO solution was diluted with 199 μL of the culture medium and placed in wells of a 384-well plate (10 μL/well). Next, IFN-γ (Sigma, I-3265) was added to a fresh culture medium to a concentration of 31.25 ng/mL, and KATO-III cells were suspended at 50,000 cells/mL in the culture medium. […] The final concentration of DMSO was limited to 0.1 vol % or less so that DMSO itself may not affect the kynurenine concentration measured in this assay. […] To the transferred supernatant, 15 μL of a 2 w/v % solution of p-dimethylaminobenzaldehyde in acetic acid was added, incubation was performed at 65° C. for 20 minutes and the absorbance was measured at 480 nm.\nSample: the absorbance value of the well to which DMSO solution containing a test substance was added and in which the cells were treated with IFN-γ.\nBlank: the absorbance value of the well to which DMSO not containing a test substance was added and in which the cells were treated with IFN-γ.\nControl: the absorbance value of the well to which DMSO not containing a test substance was added and in which the cells were not treated with IFN-γ. […]",
  "note": "Some of these results come from one statement about several compounds together. At least one compound was matched to its structure with a doubt left.",
  "data": [
    {"molecule": "COCCS(=O)(=O)Nc1nc2ccccc2nc1O[C@@H](c1ccc(-c2noc(C3CC3)n2)nc1)C(F)(F)F", "note": "[Compound 36, (S)-N-(3-(1-(6-(5-cyclopropyl-1,2,4-oxadiazol-3-yl)pyridin-8-yl)-2,2,2-trifluoroethoxy)quinoxalin-2-yl)-2-methoxyethanesulfonamide]", "values": [
      {"measurement": "inhibition % of kynurenine production", "result": "≥ 80", "unit": "%"}
    ]}
  ]
}
